Some of the results follow.

Here are results for 23 sequences from paper PMC7819943, “Rice protein-binding microarrays: a tool to detect cis-acting elements near promoter regions in rice”.

This assay deals with T1, OsSMF1 (Oryza sativa, UniProt Q6ZLB0 1-436).
T1 sequence: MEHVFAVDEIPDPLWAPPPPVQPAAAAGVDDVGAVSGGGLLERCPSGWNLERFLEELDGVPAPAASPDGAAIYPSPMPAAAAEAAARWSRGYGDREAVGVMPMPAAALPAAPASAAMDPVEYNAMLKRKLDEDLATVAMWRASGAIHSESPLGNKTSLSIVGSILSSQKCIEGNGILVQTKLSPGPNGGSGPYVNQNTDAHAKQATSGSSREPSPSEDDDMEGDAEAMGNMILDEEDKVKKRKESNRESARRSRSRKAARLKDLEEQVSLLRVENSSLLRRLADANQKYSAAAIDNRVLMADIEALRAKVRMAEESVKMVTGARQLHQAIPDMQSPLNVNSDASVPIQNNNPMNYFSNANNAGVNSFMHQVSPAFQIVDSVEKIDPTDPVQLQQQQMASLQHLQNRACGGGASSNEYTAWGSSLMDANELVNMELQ
Description: protein-binding microarray (RPBM); PBS, 2% BSA, 51.3 ng/ul salmon testes DNA, 50 uM zinc acetate, 200 nM TF, 25 C, 1 h; high values mean tight binding. Conditions: protein: recombinant; tags: N-terminal polyhistidine and DsRed monomer fusion (pET32a); chain copies: 2; label: CyDye5-dUTP incorporated in the synthesized complementary strand; 3' TTTTT single-stranded linker to array surface; dsDNA, one strand shown. In outline: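 The binding signal is fluorescence intensity per array feature (arbitrary units). Readings came from an Axon 4000B scanner after a washed, 2% BSA-blocked, double-stranded custom Agilent array had been incubated for 1 h at 25 °C with 200 nM protein and 50 µM zinc acetate. The protein was a Ni–NTA-purified transcription factor fused N-terminally to polyhistidine and DsRed, expressed in E. coli BL21-CodonPlus.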
As for “CTGGCAAGTCCTTCTGCAGTGCCCTTTCAAGTTTCTTTGACGGAGTCACCTAGTGCAG”, the binding signal is 24300 fluorescence intensity (a.u.).
The result for “TGGTGGCTGTGGGTGGATAAAACCGAGGCCCACGCCTGCACGGAGTCACCTAGTGCAG” reads 3260 fluorescence intensity (a.u.); that for “AGACACATGCCCAGGTTTACCACGTATACTCTTTGAGTTGCGGAGTCACCTAGTGCAG”, 4220 fluorescence intensity (a.u.); that for “GGTGGCGTGCTCCCGGTTTTCTTCGGCCGAAACCGAAAGCCGGAGTCACCTAGTGCAG”, 17400 fluorescence intensity (a.u.).
“CTTGGCTACCCTCCACCGGCGTCACCTTCACCGCTGACCTCGGAGTCACCTAGTGCAG”: the binding signal is 3900 fluorescence intensity (a.u.).
With “CCTTATTACGTGCCAACTTCGGAGACTTGTACCAGTACTTCGGAGTCACCTAGTGCAG”, the binding signal was 3210 fluorescence intensity (a.u.).
The result for “CTTGAGACAGAACCCGACACTGACATGTAGGGCCCACCTGCGGAGTCACCTAGTGCAG” reads 3820 fluorescence intensity (a.u.); that for “TGTGCAATGGTACATCATGAACAGTGTTTCGTGTTGAATGCGGAGTCACCTAGTGCAG”, 4200 fluorescence intensity (a.u.); that for “ATTTCAGAATCATGACGCATGATATTGACCTCATTGATGACGGAGTCACCTAGTGCAG”, 7840 fluorescence intensity (a.u.).
In the case of “TAGTGACAAAGACACGTGACTTTGACTACAGAGGATCTCTCGGAGTCACCTAGTGCAG”, the binding signal was 5400 fluorescence intensity (a.u.).
The result for “ATTCTCATATGACTGATGTAAGCAATTACTTCGCATTGGCCGGAGTCACCTAGTGCAG” reads 4260 fluorescence intensity (a.u.); that for “CAGTTGACAAATGACAACCGGCACGTTTGCAACATGCAAGCGGAGTCACCTAGTGCAG”, 3220 fluorescence intensity (a.u.).
Take “CTGTTGGGGCATGCTTCCTCGCTCCACGCAAGCCCACATCCGGAGTCACCTAGTGCAG”: the binding signal is 7560 fluorescence intensity (a.u.).
The result for “AAATATCTACGTTTAGTTTGTTGTCAAATTTGGTCAACATCGGAGTCACCTAGTGCAG” reads 3320 fluorescence intensity (a.u.); that for “TTAGAAGTTCGAATCTAGTAATAAGTATTGGCAATAACTCCGGAGTCACCTAGTGCAG”, 37600 fluorescence intensity (a.u.); that for “AACTCGATGATGATGTCGCCACGACGCCTTGTATATATTTCGGAGTCACCTAGTGCAG”, 3200 fluorescence intensity (a.u.).
For “CGCCTCCGTGGACCCGGTCCACGGGGAGATTACACCTTCACGGAGTCACCTAGTGCAG” the value was 57600 fluorescence intensity (a.u.); for “AGGGGCGAGTATCATACCGTCTCCGGCTAAGGCTCCGTCACGGAGTCACCTAGTGCAG”, 17600 fluorescence intensity (a.u.); for “ATGCATTGCATGAGCCATGATGGACTCAAAGAGTGAGTTGCGGAGTCACCTAGTGCAG”, 3340 fluorescence intensity (a.u.).
For “TAGCAGAGACTAGGGCCTGCCTCCACGCCATGCTCTGCTTCGGAGTCACCTAGTGCAG” the value was 3260 fluorescence intensity (a.u.); for “ACATTGTGGCTTTGCAATCAGGCGTGACACGGCACGTGCCCGGAGTCACCTAGTGCAG”, 7650 fluorescence intensity (a.u.); for “ACCGCCAAAAGCACACGCACTGGTGACTGGGTAGGTGGTGCGGAGTCACCTAGTGCAG”, 5450 fluorescence intensity (a.u.).
On to “CACCGCTAACACAGCTAGCGACACACGCCAGCTCTCACGTCGGAGTCACCTAGTGCAG”, for which the binding signal is 3570 fluorescence intensity (a.u.).
